This note sets out measurements from paper PMC3396653.

Amino acid sequences for entries named in this document (tags omitted). Residues count along the entry.
UniProt P35918, residues 20-1345: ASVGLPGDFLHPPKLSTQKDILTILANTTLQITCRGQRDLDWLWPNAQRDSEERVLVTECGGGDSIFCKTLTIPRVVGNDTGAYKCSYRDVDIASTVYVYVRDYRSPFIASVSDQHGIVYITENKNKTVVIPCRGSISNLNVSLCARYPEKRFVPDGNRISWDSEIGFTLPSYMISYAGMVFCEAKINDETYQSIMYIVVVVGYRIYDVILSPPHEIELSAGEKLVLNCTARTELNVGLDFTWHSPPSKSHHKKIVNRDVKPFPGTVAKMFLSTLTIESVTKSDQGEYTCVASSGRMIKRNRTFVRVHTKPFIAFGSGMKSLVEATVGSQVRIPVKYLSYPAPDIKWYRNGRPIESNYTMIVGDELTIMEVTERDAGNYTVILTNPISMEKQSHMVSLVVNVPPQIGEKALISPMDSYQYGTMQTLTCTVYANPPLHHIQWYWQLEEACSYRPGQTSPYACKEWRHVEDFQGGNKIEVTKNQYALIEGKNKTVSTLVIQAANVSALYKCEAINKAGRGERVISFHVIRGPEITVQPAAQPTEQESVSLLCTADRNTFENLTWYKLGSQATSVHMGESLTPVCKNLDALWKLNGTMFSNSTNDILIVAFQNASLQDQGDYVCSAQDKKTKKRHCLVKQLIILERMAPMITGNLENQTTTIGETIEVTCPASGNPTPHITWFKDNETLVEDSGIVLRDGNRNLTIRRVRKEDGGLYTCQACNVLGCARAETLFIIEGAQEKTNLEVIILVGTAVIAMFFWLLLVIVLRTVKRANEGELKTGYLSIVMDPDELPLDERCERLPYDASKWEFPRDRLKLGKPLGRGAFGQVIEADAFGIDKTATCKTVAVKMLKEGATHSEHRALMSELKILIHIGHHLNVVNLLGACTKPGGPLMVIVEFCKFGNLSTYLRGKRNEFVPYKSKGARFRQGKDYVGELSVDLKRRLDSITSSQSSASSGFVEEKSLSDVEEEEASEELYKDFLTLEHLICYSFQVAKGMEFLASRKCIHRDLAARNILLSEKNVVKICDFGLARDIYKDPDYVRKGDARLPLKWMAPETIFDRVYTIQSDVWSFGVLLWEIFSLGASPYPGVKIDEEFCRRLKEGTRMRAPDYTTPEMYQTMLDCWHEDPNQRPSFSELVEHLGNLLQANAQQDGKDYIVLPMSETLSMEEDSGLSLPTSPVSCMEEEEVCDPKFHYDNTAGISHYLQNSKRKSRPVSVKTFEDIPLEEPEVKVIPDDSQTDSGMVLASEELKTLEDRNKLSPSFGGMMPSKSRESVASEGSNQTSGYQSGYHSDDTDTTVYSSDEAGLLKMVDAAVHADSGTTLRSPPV

Results are given in words; binding and its absence hold for the method and conditions named. Binding seen in cells or lysates may run through a third protein. Some results given as binding are weak or reduced against the parent protein; the word gives no strength.

The target of assay [1] is T1, beta3 integrin (mouse (endogenous in kidney and VEGF^KD podocytes)) (UniProt O54890).
T1 sequence: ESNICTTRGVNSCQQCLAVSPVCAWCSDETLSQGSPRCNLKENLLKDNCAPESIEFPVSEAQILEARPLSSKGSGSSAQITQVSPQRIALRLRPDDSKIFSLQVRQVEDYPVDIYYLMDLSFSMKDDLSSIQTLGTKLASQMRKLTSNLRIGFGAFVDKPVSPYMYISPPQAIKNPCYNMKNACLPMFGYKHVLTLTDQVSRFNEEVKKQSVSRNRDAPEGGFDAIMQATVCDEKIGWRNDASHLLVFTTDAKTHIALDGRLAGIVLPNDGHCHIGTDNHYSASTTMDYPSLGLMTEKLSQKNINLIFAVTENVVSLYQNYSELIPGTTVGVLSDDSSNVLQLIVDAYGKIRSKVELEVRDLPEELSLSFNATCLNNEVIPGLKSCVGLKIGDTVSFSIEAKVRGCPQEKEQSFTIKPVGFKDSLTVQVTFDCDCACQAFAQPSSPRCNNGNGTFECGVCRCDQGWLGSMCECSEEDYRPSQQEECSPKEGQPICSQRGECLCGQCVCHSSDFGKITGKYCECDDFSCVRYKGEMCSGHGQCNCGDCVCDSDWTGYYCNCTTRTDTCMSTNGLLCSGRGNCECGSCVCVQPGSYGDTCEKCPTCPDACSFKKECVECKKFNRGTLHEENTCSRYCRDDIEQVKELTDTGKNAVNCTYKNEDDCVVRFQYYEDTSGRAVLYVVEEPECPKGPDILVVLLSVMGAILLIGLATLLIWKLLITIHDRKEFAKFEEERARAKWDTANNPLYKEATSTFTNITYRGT
Nature of the assay: co-IP; pooled mouse whole kidney lysates (1.5 mg) in IP buffer (1% Triton X-100, 1% Nonidet P-40, 0.5% Na deoxycholate, 150 mM NaCl, 10 mM Tris pH 7.5, 1 mM EDTA, 50 mM NaF); IP with VEGFR2 or beta3 integrin antibody overnight at 4°C, protein A-agarose; rabbit serum as negative control; western ….

The target in assay [2] is T1, beta3 integrin (mouse (endogenous in kidney and VEGF^KD podocytes)). Nature of the assay: co-IP; VEGF^KD podocyte lysates (1 mg), cells with or without doxycycline (1 µg/ml) for 48 hours; IP buffer (1% Triton X-100, 1% Nonidet P-40, 0.5% Na deoxycholate, 150 mM NaCl, 10 mM Tris pH 7.5, 1 mM EDTA, 50 mM NaF); IP with VEGFR2 or beta3 integrin antibody overnight at 4°C, protein A-agarose; rabbit serum as negative control; western blot. In general terms: Immunoblotting shows a protein as a band on a membrane.

Assay [3] addresses VEGF receptor 2 (mouse (endogenous in kidney and VEGF^KD podocytes)) (UniProt P35918). Described as above.
Assay [4] shares this target. Description: co-IP; pooled mouse whole kidney lysates (1.5 mg) in IP buffer (1% Triton X-100, 1% Nonidet P-40, 0.5% Na deoxycholate, 150 mM NaCl, 10 mM Tris pH 7.5, 1 mM EDTA, 50 mM NaF); IP with VEGFR2 or beta3 integrin antibody overnight at 4°C, protein A-agarose; rabbit serum as negative control; western ….

In the case of “VEGF receptor 2 (from UniProt P35918 20-1345)”, the binding result in assay [1] and in assay [2] was “binds” in each case.

For “neuropilin-1 (from UniProt P97333 22-923) (receptor)”, the binding result in assay [1] and in assay [2] was “binds” throughout.

B1: beta3 integrin (receptor, UniProt O54890 26-787)
chain: T1 sequence
B1: the binding entry in assay [3] and in assay [4] was “binds” in each case.
